This note sets out measurements from publication PMC7819943, “Rice protein-binding microarrays: a tool to detect cis-acting elements near promoter regions in rice”.

By UniProt entry, the sequences of proteins in these tests, tags left out.
UniProt Q0JBA9, entry or part of it: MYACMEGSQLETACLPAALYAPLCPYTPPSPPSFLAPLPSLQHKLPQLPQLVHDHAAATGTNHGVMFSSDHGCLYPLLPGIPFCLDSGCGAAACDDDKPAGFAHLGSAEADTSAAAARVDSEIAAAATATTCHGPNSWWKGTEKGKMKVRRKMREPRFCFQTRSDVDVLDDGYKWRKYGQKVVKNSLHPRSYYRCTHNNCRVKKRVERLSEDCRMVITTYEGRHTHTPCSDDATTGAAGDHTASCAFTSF

This is one part of the list.

The assay addresses OsWRKY34 (Oryza sativa, UniProt Q0JBA9 1-250). Nature of the assay: protein-binding microarray (RPBM); PBS, 2% BSA, 51.3 ng/ul salmon testes DNA, 50 uM zinc acetate, 200 nM TF, 25 C, 1 h; high values mean tight binding. As to conditions: protein: recombinant; tags: N-terminal polyhistidine and DsRed monomer fusion (pET32a); label: CyDye5-dUTP incorporated in the synthesized complementary strand; 3' TTTTT single-stranded linker to array surface; dsDNA, one strand shown. The method, boiled down: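 For the binding signal, per-feature fluorescence intensity was read in arbitrary units on an Axon 4000B scanner. Before scanning, a 2% BSA-blocked custom Agilent array made double-stranded with Cy5-dUTP was washed after 1 h at 25 °C with 200 nM protein and 50 µM zinc acetate. The proteins were Ni–NTA-purified transcription factors with N-terminal polyhistidine and DsRed fusions, expressed in E. coli BL21-CodonPlus.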
Consider “ACTGATCAGCTCCTATATTGTACCGTAACAATCCATGTCACGGAGTCACCTAGTGCAG”, for which the binding signal was 8240 fluorescence intensity (a.u.).

On to “TCTCCGACCAGGACCTCAACCCGGGCGCCTACCGACTCATCGGAGTCACCTAGTGCAG”, for which the binding signal is 8760 fluorescence intensity (a.u.).

Turning to “CCTTTGTGGTCTGTTCTGTGTTATTCATTTTTCGGAGTTCCGGAGTCACCTAGTGCAG”, the binding signal was 8520 fluorescence intensity (a.u.).

For “CTTTTCTCCCTTCCACTTGCCGCTGTTGTTTACTCTTTCCCGGAGTCACCTAGTGCAG”, the binding signal was 9800 fluorescence intensity (a.u.).

For “GGGATGGATGTGCTGGGTTGGTGGCTGGTTGGCTGGCCGGCGGAGTCACCTAGTGCAG”, the binding signal is 11000 fluorescence intensity (a.u.).

Turning to “AGTTGAGAGATCCGTTGTATCTGGTTTTTCGGTTGAGGGACGGAGTCACCTAGTGCAG”, the binding signal is 8390 fluorescence intensity (a.u.).

With “ACCTGTCTGTATTTTTGTACACTCTGCTGCTTGCCCTTCTCGGAGTCACCTAGTGCAG”, the binding signal was 10500 fluorescence intensity (a.u.).

Take “AGCTGTGAGTTTCTGTGTCCAATGTTTGACCGTCAATCTTCGGAGTCACCTAGTGCAG”: the binding signal is 12100 fluorescence intensity (a.u.).

Consider “TTTTTTTTTTATCCGTCCCTACTCCTCGCACCTTAAAAATCGGAGTCACCTAGTGCAG”, for which the binding signal is 10300 fluorescence intensity (a.u.).

For “CCCACACCCTTCTTTTGTCGCGCTGATCCCCAGACGCCGGCGGAGTCACCTAGTGCAG”, the binding signal was 12900 fluorescence intensity (a.u.).

In the case of “TTTCCAACCAACTGATCTTTCATTCCATCATTCTTTCTTTCGGAGTCACCTAGTGCAG”, the binding signal is 9870 fluorescence intensity (a.u.).

For “GTTTGACTTTTTTACTAGTCAAACTTATTTAAGTTTGACCCGGAGTCACCTAGTGCAG”, the binding signal was 17500 fluorescence intensity (a.u.).

For the sequence “GTTGGGTCTTGGCTTTCTCCCCTCTCTCTCTCCCTCTTGTCGGAGTCACCTAGTGCAG”, the binding signal was 8580 fluorescence intensity (a.u.).

In the case of “AAGGGTTGGGCATCATTGCAGCATAACTAAACACACCGTACGGAGTCACCTAGTGCAG”, the binding signal was 10200 fluorescence intensity (a.u.).

With “AAGTTTAGGGTGAGCAATGTCTGGTTTTCGGGTTCAGGGGCGGAGTCACCTAGTGCAG”, the binding signal was 13300 fluorescence intensity (a.u.).

As for “GTTTTTGTTTGTTGTTGATGATATGATCCAGCACTGATGTCGGAGTCACCTAGTGCAG”, the binding signal is 8040 fluorescence intensity (a.u.).

“CACTACCTCCAACTAACTAACCACCTTTTCTCTCCACTGCCGGAGTCACCTAGTGCAG”: the binding signal is 8250 fluorescence intensity (a.u.).

In the case of “TCACCTGCCTGCCCCTGCGCTGCGCCGGCTGCGCCTTCTGCGGAGTCACCTAGTGCAG”, the binding signal is 10800 fluorescence intensity (a.u.).

Regarding “GCGGTAGGGTTCAGTACTCTATGCTCAAGTCCTCTTCCTACGGAGTCACCTAGTGCAG”, the binding signal is 8670 fluorescence intensity (a.u.).

Turning to “CACCATACTAAGTACTAGAGTACCTAACTTCAGTATCTTCCGGAGTCACCTAGTGCAG”, the binding signal was 9110 fluorescence intensity (a.u.).

Turning to “GTACTTTGTTCGTTTCAAAACGATACTTTACCTAATTTTACGGAGTCACCTAGTGCAG”, the binding signal is 8590 fluorescence intensity (a.u.).

With “CATCCACGCAACCCTGCAGCAACGGTCACTAAACCAATCCCGGAGTCACCTAGTGCAG”, the binding signal is 8270 fluorescence intensity (a.u.).

“TCACCGTTTAGTCCTTGATGCACCACCTTCTCCGACCTCTCGGAGTCACCTAGTGCAG”: the binding signal was 13000 fluorescence intensity (a.u.).

“TCCATCTTCTTCTTGCCACTCTGAATTCAGCTTCAGGAGCCGGAGTCACCTAGTGCAG”: the binding signal was 9250 fluorescence intensity (a.u.).

In the case of “AAAAAAACCCTTTGCAACACTGCTCCACTCCATCACTAGTCGGAGTCACCTAGTGCAG”, the binding signal was 8630 fluorescence intensity (a.u.).

For “AATGTCGGTTTCATTGCAGTTTATTCTTTGTCGTTGGCTTCGGAGTCACCTAGTGCAG”, the binding signal was 9760 fluorescence intensity (a.u.).

Consider “CCCTTTCATCGCGTGGCTTTCCCACACATCGCTGTGTCTCCGGAGTCACCTAGTGCAG”, for which the binding signal was 12300 fluorescence intensity (a.u.).

For “CGCCATTAGCCCATTATTCATGTGAATACTTCTATTCACACGGAGTCACCTAGTGCAG”, the binding signal is 8760 fluorescence intensity (a.u.).

For the sequence “CGATCGATTTCTTTGGGATTCTTGAGCTCATCCATCCATGCGGAGTCACCTAGTGCAG”, the binding signal is 8590 fluorescence intensity (a.u.).

For the sequence “AGCAGCTCTCACGTTTCACTGTTCGCCTCTGCCATTCTCCCGGAGTCACCTAGTGCAG”, the binding signal is 9600 fluorescence intensity (a.u.).

As for “AAGCATATACTTACATCTTGGGAGGACCAAATTATAACAGCGGAGTCACCTAGTGCAG”, the binding signal is 8080 fluorescence intensity (a.u.).

Consider “ATATATTGTTTCCTTTTTTCTTTTCTTTTTTTGGTTTTAACGGAGTCACCTAGTGCAG”, for which the binding signal is 10300 fluorescence intensity (a.u.).

Turning to “GTTCCGTTCGTTCTCCCACGGCCACGGCCTCACCTTTACCCGGAGTCACCTAGTGCAG”, the binding signal is 8270 fluorescence intensity (a.u.).

In the case of “TTTCAGGTACGATGTTTCTCCAGTTCTAGTATATTCCTTACGGAGTCACCTAGTGCAG”, the binding signal was 8880 fluorescence intensity (a.u.).

Regarding “ATCCCGCGCCTCCTCGCTTCTCCTCCACACCCACGAATCCCGGAGTCACCTAGTGCAG”, the binding signal is 9570 fluorescence intensity (a.u.).

As to “AGCCTATCGTATTCCGCGCGCACGCTTCCCAAACTACTAACGGAGTCACCTAGTGCAG”, the binding signal is 11600 fluorescence intensity (a.u.).

For the sequence “GTCCAATCCCGCTAGCTCCATCGCCTCCAGTTTAATCATCCGGAGTCACCTAGTGCAG”, the binding signal is 9010 fluorescence intensity (a.u.).

Turning to “GACCAGCGACATCAGCGTGCGCGCGGGGACAGGGTTGGGGCGGAGTCACCTAGTGCAG”, the binding signal was 8910 fluorescence intensity (a.u.).

In the case of “GGCGTTATATCTGGTTTTGTGGCTGAGGGAGGTAATTTAGCGGAGTCACCTAGTGCAG”, the binding signal was 11700 fluorescence intensity (a.u.).

With “TTCCCATTCTCTTGCTCACTATATATGCCTGTCAATTTTTCGGAGTCACCTAGTGCAG”, the binding signal was 9140 fluorescence intensity (a.u.).

With “TTTTGTTCAGTTATTCTTCCTCGTGAGGTGATGTCCTTTTCGGAGTCACCTAGTGCAG”, the binding signal was 8900 fluorescence intensity (a.u.).

Take “AGCCATTACCCAAACCCGCGCTCCGCTCGCTCTCCACCGCCGGAGTCACCTAGTGCAG”: the binding signal is 8940 fluorescence intensity (a.u.).
